The series deals with human P2Y2 receptor. The series is described as follows: Expression of C-terminal GFP tagged human P2Y2 receptor mutants in yeast (flow cytometry, microscopy). The series is classed as cell-based. The settings on record: C-terminal GFP tag, versus WT P2Y2. (A flow cytometer gives signals particle by particle.)

With TM-3: human P2Y2 receptor mutant N116S, the “Human P2Y2 receptor expression in yeast” value is “expression levels similar to those of WT P2Y2 receptor”.

For the molecule “TM-2: human P2Y2 receptor mutant L59I C119S”, the “Human P2Y2 receptor expression in yeast” value is on record as “increased”.

In the case of “H7-1: human P2Y2 receptor mutant K240N F307S [Mutant H7-1]”, the “Human P2Y2 receptor expression in yeast” value was “expression levels similar to those of WT P2Y2 receptor”.

B1: H7-2: human P2Y2 receptor mutant A76T A229V F307S (protein, UniProt P41231 1-377, looked up, variant A76T A229V F307S)
P2Y purinoceptor 2: MAADLGPWNDTINGTWDGDELGYRCRFNEDFKYVLLPVSYGVVCVPGLCLNAVALYIFLCRLKTWNASTTYMFHLTVSDALYAASLPLLVYYYARGDHWPFSTVLCKLVRFLFYTNLYCSILFLTCISVHRCLGVLRPLRSLRWGRARYARRVAGAVWVLVLACQAPVLYFVTTSARGGRVTCHDTSAPELFSRFVAYSSVMLGLLFAVPFAVILVCYVLMARRLLKPVYGTSGGLPRAKRKSVRTIAVVLAVFALCFLPFHVTRTLYYSFRSLDLSCHTLNAINMAYKVTRPLASANSCLDPVLYSLAGQRLVRFARDAKPPTGPSPATPARRRLGLRRSDRTDMQRIEDVLGSSEDSRRTESTPAGSENTKDIRL
For the molecule B1, the “Human P2Y2 receptor expression in yeast” value is on record as “expression levels similar to those of WT P2Y2 receptor”.

The values above are taken from US20220323521A1, “Compositions and Uses for Engineered Therapeutic Microbes and Associated Receptors” (The Brigham and Women`s Hospital, Inc., priority 2019, published 2022).
